# Reference: article PMC11763377
# By UniProt entry, the sequences of proteins in these tests, tags left out.
# UniProt P09874: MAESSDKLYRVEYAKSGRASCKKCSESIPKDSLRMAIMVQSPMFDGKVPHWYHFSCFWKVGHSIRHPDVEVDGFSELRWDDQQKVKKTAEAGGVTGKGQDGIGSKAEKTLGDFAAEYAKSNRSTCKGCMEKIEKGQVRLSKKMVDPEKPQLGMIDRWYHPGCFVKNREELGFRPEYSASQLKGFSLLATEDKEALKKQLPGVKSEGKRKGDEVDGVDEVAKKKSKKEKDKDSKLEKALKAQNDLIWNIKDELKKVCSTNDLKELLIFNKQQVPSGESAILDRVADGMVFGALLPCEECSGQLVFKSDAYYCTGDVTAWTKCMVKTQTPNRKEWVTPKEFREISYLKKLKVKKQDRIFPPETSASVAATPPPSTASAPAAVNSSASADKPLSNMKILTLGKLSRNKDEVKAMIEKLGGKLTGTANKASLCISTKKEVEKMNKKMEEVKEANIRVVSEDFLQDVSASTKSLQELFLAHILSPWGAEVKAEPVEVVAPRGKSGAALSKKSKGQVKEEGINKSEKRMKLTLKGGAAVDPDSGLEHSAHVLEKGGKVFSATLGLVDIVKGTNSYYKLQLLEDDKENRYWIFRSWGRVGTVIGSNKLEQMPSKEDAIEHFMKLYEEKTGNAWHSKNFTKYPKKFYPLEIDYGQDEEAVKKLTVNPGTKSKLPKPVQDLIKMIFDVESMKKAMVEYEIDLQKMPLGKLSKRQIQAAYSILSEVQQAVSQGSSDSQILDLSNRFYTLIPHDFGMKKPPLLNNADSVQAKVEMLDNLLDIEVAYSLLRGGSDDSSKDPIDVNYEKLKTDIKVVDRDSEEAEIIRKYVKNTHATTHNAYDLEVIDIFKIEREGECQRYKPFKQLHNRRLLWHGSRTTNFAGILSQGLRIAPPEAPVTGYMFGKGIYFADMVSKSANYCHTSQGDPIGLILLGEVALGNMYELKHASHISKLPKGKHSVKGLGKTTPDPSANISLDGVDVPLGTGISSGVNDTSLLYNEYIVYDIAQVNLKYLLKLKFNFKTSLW
# UniProt P35579: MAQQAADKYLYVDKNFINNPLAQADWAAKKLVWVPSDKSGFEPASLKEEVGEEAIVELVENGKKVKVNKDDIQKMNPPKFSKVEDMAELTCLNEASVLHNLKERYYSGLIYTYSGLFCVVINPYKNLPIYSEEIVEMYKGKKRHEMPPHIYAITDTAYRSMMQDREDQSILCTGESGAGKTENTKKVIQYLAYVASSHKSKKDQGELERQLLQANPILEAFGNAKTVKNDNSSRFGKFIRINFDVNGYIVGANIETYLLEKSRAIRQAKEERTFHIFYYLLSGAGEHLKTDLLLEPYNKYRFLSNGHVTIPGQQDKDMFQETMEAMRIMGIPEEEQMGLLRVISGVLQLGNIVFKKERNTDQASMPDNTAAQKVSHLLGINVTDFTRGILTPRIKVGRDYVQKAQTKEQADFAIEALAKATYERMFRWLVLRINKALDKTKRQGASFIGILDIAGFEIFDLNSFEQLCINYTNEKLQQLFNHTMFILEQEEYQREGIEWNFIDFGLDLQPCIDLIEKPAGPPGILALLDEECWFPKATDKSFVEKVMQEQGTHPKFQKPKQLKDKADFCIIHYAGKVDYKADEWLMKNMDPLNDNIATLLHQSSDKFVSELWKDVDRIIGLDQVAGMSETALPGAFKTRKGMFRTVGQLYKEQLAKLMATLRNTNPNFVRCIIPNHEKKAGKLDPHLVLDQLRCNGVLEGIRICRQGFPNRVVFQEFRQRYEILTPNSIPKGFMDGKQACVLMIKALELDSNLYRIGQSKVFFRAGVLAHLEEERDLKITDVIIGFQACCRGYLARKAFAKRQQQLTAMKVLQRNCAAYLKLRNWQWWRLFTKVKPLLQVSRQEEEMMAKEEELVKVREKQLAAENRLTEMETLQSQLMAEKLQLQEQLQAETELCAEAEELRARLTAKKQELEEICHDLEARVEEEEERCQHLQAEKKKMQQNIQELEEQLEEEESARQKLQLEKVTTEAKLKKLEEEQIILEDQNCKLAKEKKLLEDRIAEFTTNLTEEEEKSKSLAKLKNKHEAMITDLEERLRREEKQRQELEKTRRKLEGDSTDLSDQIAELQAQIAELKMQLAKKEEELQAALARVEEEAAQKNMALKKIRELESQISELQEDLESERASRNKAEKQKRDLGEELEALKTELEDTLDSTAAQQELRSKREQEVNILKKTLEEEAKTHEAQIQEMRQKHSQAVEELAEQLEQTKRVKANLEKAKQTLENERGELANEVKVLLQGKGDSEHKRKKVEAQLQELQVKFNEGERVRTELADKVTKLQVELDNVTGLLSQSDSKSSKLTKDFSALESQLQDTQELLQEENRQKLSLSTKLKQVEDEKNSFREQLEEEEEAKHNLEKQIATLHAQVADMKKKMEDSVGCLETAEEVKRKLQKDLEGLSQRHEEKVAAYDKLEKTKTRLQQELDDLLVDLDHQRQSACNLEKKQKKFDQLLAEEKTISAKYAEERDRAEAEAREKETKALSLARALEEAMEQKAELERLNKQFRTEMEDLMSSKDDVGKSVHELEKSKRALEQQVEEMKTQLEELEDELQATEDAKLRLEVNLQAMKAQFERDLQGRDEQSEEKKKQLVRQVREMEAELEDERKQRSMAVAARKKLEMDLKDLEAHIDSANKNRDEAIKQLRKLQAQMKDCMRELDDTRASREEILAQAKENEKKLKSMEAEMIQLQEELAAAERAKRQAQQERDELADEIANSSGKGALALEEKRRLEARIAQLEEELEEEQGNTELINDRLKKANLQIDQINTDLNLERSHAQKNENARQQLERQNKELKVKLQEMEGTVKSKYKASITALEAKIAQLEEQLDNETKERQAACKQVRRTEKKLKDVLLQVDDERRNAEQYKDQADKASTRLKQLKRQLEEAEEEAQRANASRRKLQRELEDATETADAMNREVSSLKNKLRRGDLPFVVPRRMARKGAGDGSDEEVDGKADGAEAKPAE
# Results are given in words; binding and its absence hold for the method and conditions named. In cells and extracts the contact can be indirect. Some binding calls cover weakened binding; strength is not graded here.
# Target: poly (ADP-ribose) polymerase 1 (PARP1) (human (endogenous in TOV-21G)) (UniProt P09874)
# Experiment: co-IP; TOV-21G cell lysates immunoprecipitated with the indicated antibodies, Western blot for p53 and MYH9; input 5% of the total cell extract; normal rabbit IgG as negative control, PARP1 as positive control
substance,measurement,value
myosin 9 (MYH9) (from UniProt P35579 1-1960),binding,binds
